# The campaign covered roughly 360,000 compounds. About 9,100 (2.5%) were called active. The shares of active, inactive and inconclusive entries below differ from those in the screen. No stated cut-off is given here; in the data, active means max response below about -50%; inconclusive means no clear call, values can overlap the other calls; inactive means above that.
# Protein sequences, listed by entry. Tags and fused reporters are not part of them.
# UniProt P35462, whole entry, looked up: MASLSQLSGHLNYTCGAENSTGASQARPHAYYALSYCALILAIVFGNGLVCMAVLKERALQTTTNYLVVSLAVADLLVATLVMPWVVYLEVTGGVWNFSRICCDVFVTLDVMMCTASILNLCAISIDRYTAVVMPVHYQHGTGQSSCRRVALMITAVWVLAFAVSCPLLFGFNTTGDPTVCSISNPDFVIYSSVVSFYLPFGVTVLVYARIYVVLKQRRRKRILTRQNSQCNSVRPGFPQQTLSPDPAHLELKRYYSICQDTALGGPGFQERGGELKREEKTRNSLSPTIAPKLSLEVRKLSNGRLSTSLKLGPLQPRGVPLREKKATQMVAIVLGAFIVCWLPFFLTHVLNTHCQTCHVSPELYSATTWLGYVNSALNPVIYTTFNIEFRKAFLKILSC
# Target: D(3) dopamine receptor (Homo sapiens) (UniProt P35462)
# Test: qHTS of D3 Dopamine Receptor Antagonist: qHTS
# Conditions: D3R cells, DiscoveRx beta-arrestin luminescence, antagonist mode; stronger effect = lower value
# How it was run: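 Cells expressing the human receptor were seeded at 1500 cells/well, incubated overnight at 37 degrees C in 5% CO2, then exposed to library compounds with dopamine controls for 90 minutes at 37 degrees C before luminescent detection.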
# On the % scale 0 is the no-effect control and ±100 the full control effect.
row,SMILES,"max response, negative = inhibition"
1,Cc1cccc(NC(=S)NC2CC3CCCC(C2)N3Cc2cccs2)c1C (centres undefined),active: -72.3%
2,CC(C)OC(=O)c1cc(NC(=S)Nc2ccc([N+](=O)[O-])cc2)cc(C(=O)OC(C)C)c1,active: -62.6%
3,C=CCOc1cccc(C2C(C(=O)c3ccco3)=C(O)C(=O)N2Cc2ccncc2)c1 (centres undefined),inconclusive: -30.7%
4,C[C@H]1CN(Cc2ccccc2)C(=O)[C@@H]1CC(=O)NCc1ccccc1,inconclusive: -32.5%
5,C[C@@H](NC(=O)c1nc[nH]c1C(=O)N[C@@H](Cc1ccccc1)C(=O)OCc1ccccc1)c1ccccc1,inconclusive: -38.9%
6,CN(C)CC/C=C1/c2cc(F)ccc2Sc2ccc(Cl)cc21,active: -84.3%
7,Cc1cc(C)nc(SCC(=O)Nc2ccc3c(c2)OCO3)n1,inactive: 5.04%
8,CCC(c1nnnn1C(C)(C)C)N1CCN(C/C=C/c2ccccc2)CC1 (centres undefined),active: -80.5%
9,C/C(=N/NC(=O)Cc1c(C)[nH][nH]c1=O)c1ccc(O)cc1,inconclusive: -33.2%
10,O=C(CSc1nnc(CNC(=O)c2ccc(F)cc2)o1)NCC1CCCO1 (centres undefined),inactive: -6.01%
11,COc1cccc(CN2CCC2(C)C(=O)Nc2ccc3c(c2)CCN3C(C)=O)c1F (centres undefined),inactive: 72.3%
12,O=C(CNC(=S)N(CCCN1CCOCC1)Cc1cccs1)NC1CCCCC1,inconclusive: -32.3%
13,Cc1[nH]c(C)c(S(=O)(=O)Nc2cccc(Cl)c2C)c1C(=O)N1CCCC1,active: -65.1%
14,CC(C)CNC(=S)NC1CC2CCCC(C1)N2C1CCCCC1 (centres undefined),inconclusive: -33.2%
15,O=C(/C=C/c1ccccc1)NC(=S)NNC(=O)Cc1cccs1,active: -72.4%
16,Cc1ccc(C)c(S(=O)(=O)Nc2ccc3scnc3c2)c1,inactive: -5.17%
17,C/C(=N\NC(=O)C(C)Nc1cccc(Cl)c1)c1ccc([N+](=O)[O-])cc1 (centres undefined),inconclusive: -40%
18,CC(C)(C)Cc1nnc(NS(=O)(=O)c2ccccc2)s1,inconclusive: -40.5%
19,CCOC(=O)CN1C(=O)C(=O)N(Cc2cccc(C)c2)C1=O,inactive: 6.2%
20,COc1ccc(Br)cc1CN(C)CC(=O)NCCc1ccccc1,inconclusive: -33.2%
21,COc1ccc2c(c1)C(C)=CC(C)(C)N2S(=O)(=O)c1ccc(NC(C)=O)cc1,inconclusive: -39.7%
22,CSCC[C@H]1COC[C@@H](Cc2ccccc2)N1c1ccccc1,inconclusive: -34.6%
23,O=C(Nc1cccc(O)c1)c1cc(-c2ccc3c(c2)OCO3)on1,inactive: 11.7%

row,SMILES,"max response, negative = inhibition"
1,O=c1cc(CSc2nc(NCc3ccc(Cl)cc3)c3ccccc3n2)nc2ccc(Cl)cn12,inactive: 3.11%
2,Cc1ccc(CN2CCN(CCCn3cnc4c(OCc5ccccc5)ncnc43)CC2)cc1,active: -53.4%
3,COC(=O)c1c(NC(=O)Cc2cccs2)sc2c1CCCC2,inconclusive: -35%
4,CCOC(=O)CN(C(=O)CSc1nnc(CNc2ccc(F)cc2)o1)c1ccccc1,active: -79.8%
5,Cc1[nH]nc(-c2ccc(OCc3cnn(-c4ccccc4)c3)cc2O)c1Oc1ccccc1F,inconclusive: -42.5%
6,CCOC(=O)C1(CC2CCCCO2)CCN(Cc2nc3ccccc3nc2C)CC1 (centres undefined),inconclusive: -36.6%
7,O=C(c1cnc2sccn2c1=O)N1CCCc2ccccc21,active: -52.1%
8,N#Cc1ccccc1S(=O)(=O)N1CCN(S(=O)(=O)c2ccc(Br)c(C(=O)O)c2)CC1,inactive: 15.3%
9,COc1ccc([N+](=O)[O-])cc1NC(=O)C(C)N1CCCC1 (centres undefined),active: -62.3%
10,O=C(Cc1cccs1)Nc1nc(-c2ccc(F)cc2F)cs1,inactive: 35.5%
11,COc1ccc(CNC(=O)COC(=O)Cc2ccc(Cl)cc2Cl)cc1,active: -80%
12,CN(c1ccccc1)S(=O)(=O)c1ccc(C(=O)NCc2ccc(F)cc2)cc1,inactive: -28.9%
13,COc1ccccc1N(CC(=O)NC(C)(C)C)S(=O)(=O)c1cccs1,inactive: -24%
14,Cc1ccc(/C=N/NC(=O)c2n[nH]c3c2CCCC3)cc1,inactive: -13.3%
15,CCN(CC)C1Oc2cc3c(cc2C(c2cc(OC)c(OC)c(OC)c2)C1C)OCO3 (centres undefined),inconclusive: -38.2%
16,O=C(O)c1cccc(S(=O)(=O)N2CC=C(c3ccccc3)CC2)c1,inconclusive: -34.4%
17,CCOC(=O)c1c(CN2CCCCC2)oc2ccc(OC)cc12,inconclusive: -34%
18,COc1ccc(CNC(=O)Nc2ccc(OC)cc2)cc1,inconclusive: -37.1%
19,O=C(NCCc1c[nH]c2ccccc12)OCCCCOC(=O)NCCc1c[nH]c2ccccc12,inactive: 26.5%
20,O=C(CSc1cccc2cccnc12)N/N=C/c1cccnc1,inconclusive: -40.2%
21,O=C(NC1CCCCC1)C(CCc1ccccc1)N1CCc2ccccc2C1 (centres undefined),active: -59.5%
22,Cc1ccc(C(=O)Nc2ccc(Oc3cccc(C(F)(F)F)c3)nc2)cc1,inactive: 2.49%
23,COc1ccc(CN2CCCC(C(=O)c3ccc(SC)cc3)C2)cc1Cn1cccn1 (centres undefined),inconclusive: -40.6%

# Random excerpt: 3 entries already listed.
row,SMILES,"max response, negative = inhibition"
21,O=C(NC1CCCCC1)C(CCc1ccccc1)N1CCc2ccccc2C1 (centres undefined),active: -59.5%
17,CCOC(=O)c1c(CN2CCCCC2)oc2ccc(OC)cc12,inconclusive: -34%
9,COc1ccc([N+](=O)[O-])cc1NC(=O)C(C)N1CCCC1 (centres undefined),active: -62.3%

# Later entries:

row,SMILES,"max response, negative = inhibition"
1,O=S1(=O)N[C@H](Cc2ccccc2)COc2cc(N3CCN(Cc4ccccc4F)CC3)ccc21,inconclusive: -38.9%
2,O=C(Cc1csc(Nc2nc(=S)[nH]c3ccccc23)n1)N1CCN(c2cccc(Cl)c2)CC1,inconclusive: -32.4%
3,C[C@@H]1CN([C@H](C)CO)S(=O)(=O)c2ccc(-c3cccc(C(=O)N(C)C)c3)cc2O[C@H]1CN(C)C(=O)Nc1ccc(F)cc1,inactive: 14.3%
4,Cc1cc(C)n2c(Nc3c(C)cccc3C)c(-c3ccccn3)nc2n1,active: -69.7%
5,CCN1CCCC1CNC(=O)c1cc2cc(F)ccc2[nH]1 (centres undefined),inconclusive: -49.3%
6,CC(C)c1cc(C(=O)Nc2cccc(C(F)(F)F)c2)no1,active: -53%
7,Cc1ccc(S[C@@H](CCN2CC[C@H](C)CCC2=O)c2ccccc2)cc1,inactive: 14.6%
8,CC(=O)C1(O)CCC2C3CC(C)C4=CC(=O)C=CC4(C)C3(F)C(O)CC21C (centres undefined),inactive: 8.21%
9,COc1ccc(CSc2nnc(Cc3sc(-c4ccccc4)nc3-c3ccccc3)o2)cc1,inactive: 2.17%
10,CCCN(CCC)CC(C)(C)NS(=O)(=O)c1ccc(Cl)cc1,inconclusive: -47.1%
11,Cn1c(SCC(=O)NCC2CCCO2)nnc1-c1ccco1 (centres undefined),inactive: 2.4%
12,CC(C#N)(Nc1ccc(Cl)cc1)c1cccnc1 (centres undefined),active: -60.8%
13,Cc1ccc(F)cc1NC(=O)c1ccc(NS(=O)(=O)c2ccc(Br)s2)cc1,inconclusive: -34.2%
14,COc1ccccc1/C=C/C(=O)OC(C)CN1CCCCC1 (centres undefined),active: -59.7%
15,CN(C)CC/C=C1\c2cc(Cl)ccc2Sc2cc(F)c(F)cc21,active: -104%
16,CCOC(=O)c1c(/N=C/c2cccc([N+](=O)[O-])c2O)sc2c1CCC2,inconclusive: -37.1%
17,CCc1ccc(/C=N/NC(=O)c2cc(-c3ccncc3)nc3ccccc23)s1,inactive: 0.404%
18,CCC1(CC)NC(=O)N(CC(=O)Nc2ccc(C)cc2C)C1=O,inconclusive: -30.5%
19,COc1ccc(C)cc1NC(=O)CN1CCN(S(=O)(=O)c2ccc(Cl)cc2)CC1,inactive: -8.34%
20,CC(C)N(C)Cc1cn(C)nc1-c1ccc(Oc2ccccc2)cc1,inconclusive: -30.5%
21,CCCCc1nc(NCCNC(=O)c2ccco2)c(C#N)c2c1CSC(C)(C)C2,inactive: 25.1%
23,COc1cc(C2C(C#N)=C(N)Oc3cc(O)ccc32)cc2c1OCO2 (centres undefined),inactive: 6.38%

row,SMILES,"max response, negative = inhibition"
1,CS(=O)(=O)Nc1ccc(Br)cc1C(=O)c1ccccc1,inconclusive: -33.7%
2,COc1ccc(C2N(Cc3ccccc3)CCN2Cc2ccccc2)cc1[N+](=O)[O-],inconclusive: -41.9%
3,CCOc1ccc(C(CC(=O)O)NC(=O)c2sc3ccccc3c2Cl)cc1 (centres undefined),inconclusive: -30.2%
4,O=C(CCNC(=O)Cn1ccc2ccccc2c1=O)NCCN1CCc2ccccc2C1,active: -52%
5,Cc1cc(NC(=O)CN2CCN(c3ccccn3)CC2)ccc1Br,inactive: -9.9%
6,COc1cc(C(O)c2nc3ccccc3n2C)cc(OC)c1OC (centres undefined),inconclusive: -39.3%
7,CC(C)c1ccccc1OCCCN1CCCC1,active: -86.6%
8,COc1cccc(-c2cc(C(=O)N3CCN(C(c4ccccc4)c4ccccc4)CC3)no2)c1,inconclusive: -33.4%
9,COc1ccc(-c2nc(N3CCCCCC3)sc2C(=O)c2ccccc2)cc1,inconclusive: -39.1%
10,CCN(CC)c1ccc(CNc2ccc(Br)cn2)cc1,inconclusive: -37.3%
11,COc1cc(CN2CCCC(C(=O)c3ccccc3SC)C2)cc(OC)c1 (centres undefined),inactive: -14%
12,O=C1NN(c2ccccc2)C(=O)/C1=C/c1ccc(-c2cccc(C(=O)O)c2)o1,active: -54.9%
13,COc1cccc(-c2nnc(SCCOc3ccc4c(C)cc(=O)oc4c3)o2)c1,inconclusive: -39.7%
14,CCOC(=O)c1c(NC(=O)C2CCCCC2)sc2c1CCN(C(C)C)C2,active: -60.4%
15,CCOCCCNC(=O)CN1C(=O)c2ccccc2Sc2ncccc21,inactive: -11%
16,CN(C)C(=O)Nc1ccccc1,inactive: 2.49%
17,CCO[C@H]1OC(C(N)=O)=C[C@@H](c2coc3ccccc3c2=O)[C@@H]1CCCO,inconclusive: -40.2%
18,Cc1c(C(=O)N2CCC(Cc3ccccc3)CC2)sc2ncnc(N3CCC(C)CC3)c12,inconclusive: -32.6%
19,CC1(C)C/C(=N\NC(=S)Nc2ccccc2F)c2cc(O)ccc2O1,active: -53.5%
20,O=C(CSC1=Nc2ccccc2C2=NC(c3ccccc3)C(=O)N12)NCC1CCCO1 (centres undefined),active: -66.9%
